Laboratory results: PubChem BioAssay AID1224830 (NIAID, 2016)
Aim: 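Regulators of TLR4 signalling towards TNF-alpha in macrophage-like cells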 (primary screen). Cells: human THP-1 monocytic leukaemia cells, TNF dual-luciferase reporter clone, PMA-differentiated to macrophage-like cells. Reagent: siRNA pool against human genes, 50 nM. Time to read-out: LPS for 4 h, given about 3 days after siRNA transfection. Conditions: bacterial LPS (TLR4 ligand), 10 ng/ml. Read-out: 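Ratio of firefly to renilla light, scaled to the plate median and expressed as a robust z-score per replicate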. Reading the numbers: TNF reporter robust z-score: higher = stronger TNF reporter response to LPS. Hit rule: 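a well is active when its z-score exceeds 2.8 or falls below -1.5; control wells carry no call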.
In all, the deposit lists about 18,000 reagents; this is an unselected part. Of all reagents, about 2,900 (16%) got an active call. 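Calls are made per well; low scores hint the gene aids the LPS response, high scores that it dampens it.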 A number with no mark means an inactive call. Repeated entries: four replicate wells of each siRNA pool.

With ADGRG2, how do the results read?
TNF reporter robust z-score: -0.92

What did the screen give for ADGRG2?
TNF reporter robust z-score: -0.73

What did the screen give for ADGRG2?
TNF reporter robust z-score: -0.71

With ADGRG2, what was measured?
TNF reporter robust z-score: -0.91

What did the screen give for FOLH1B?
TNF reporter robust z-score: -0.96

For FOLH1B, what was measured?
TNF reporter robust z-score: 0.89

With FOLH1B, what does the deposit list?
TNF reporter robust z-score: 0.28

What is on record for FOLH1B?
TNF reporter robust z-score: 0.39

What is on record for PDK3?
TNF reporter robust z-score: 0.29

With PDK3, what does the deposit list?
TNF reporter robust z-score: -0.12

Which result is listed for PDK3?
TNF reporter robust z-score: 1.14

How did the screen score PDK3?
TNF reporter robust z-score: 0.11

Which result is listed for CD6?
TNF reporter robust z-score: -0.61

What did the screen give for CD6?
TNF reporter robust z-score: -0.43

For CD6, what was measured?
TNF reporter robust z-score: -0.24

For ZDHHC9, how do the results read?
TNF reporter robust z-score: -0.84

Which result is listed for ZDHHC9?
TNF reporter robust z-score: -0.43

For ZDHHC9, what was measured?
TNF reporter robust z-score: -0.22

With ZDHHC9, what does the deposit list?
TNF reporter robust z-score: -0.82

How did the screen score OFCC1?
TNF reporter robust z-score: -1.38

For OFCC1, how do the results read?
TNF reporter robust z-score: -1.67 (active)

With OFCC1, what does the deposit list?
TNF reporter robust z-score: -1.43

With OFCC1, what does the deposit list?
TNF reporter robust z-score: -1.54 (active)

For APOL1, what does the deposit list?
TNF reporter robust z-score: 0.24

With APOL1, what was measured?
TNF reporter robust z-score: 3.6 (active)

How did the screen score APOL1?
TNF reporter robust z-score: 0.35

What did the screen give for APOL1?
TNF reporter robust z-score: 1.82

With ADAM28, what does the deposit list?
TNF reporter robust z-score: -0.33

Which result is listed for ADAM28?
TNF reporter robust z-score: 0.6

With ADAM28, what was measured?
TNF reporter robust z-score: -0.75

For ADAM28, how do the results read?
TNF reporter robust z-score: -0.73

How did the screen score CASQ1?
TNF reporter robust z-score: -0.98

What is on record for CASQ1?
TNF reporter robust z-score: -0.77

What is on record for CASQ1?
TNF reporter robust z-score: -1.76 (active)

With CASQ1, how do the results read?
TNF reporter robust z-score: -0.57

With ARL6IP6, what was measured?
TNF reporter robust z-score: -0.34

What did the screen give for ARL6IP6?
TNF reporter robust z-score: -0.75

With ARL6IP6, what was measured?
TNF reporter robust z-score: 0.97

For ARL6IP6, what was measured?
TNF reporter robust z-score: 0.15

For AADACL2, how do the results read?
TNF reporter robust z-score: -0.18

How did the screen score AADACL2?
TNF reporter robust z-score: 0.17

For AADACL2, what was measured?
TNF reporter robust z-score: 0.39

How did the screen score AADACL2?
TNF reporter robust z-score: -0.1

With ADAR, what does the deposit list?
TNF reporter robust z-score: 0.82

For ADAR, what does the deposit list?
TNF reporter robust z-score: -0.31

For ADAR, what does the deposit list?
TNF reporter robust z-score: 1.52

Which result is listed for ADAR?
TNF reporter robust z-score: -0.08

Targets listed so far whose target name starts with F or f:
FOLH1B: TNF reporter robust z-score = -0.96
FOLH1B: TNF reporter robust z-score = 0.89
FOLH1B: TNF reporter robust z-score = 0.28
FOLH1B: TNF reporter robust z-score = 0.39
